Results are given in words; binding and its absence hold for the method and conditions named. For some assays here: Binding seen in cells or lysates may run through a third protein. Some binding calls cover weakened binding; strength is not graded here.
Experiments:
[1] = target: LexA-Smad1 (full length Smad1 fused in frame to the LexA DNA binding domain (1-202) in pEG202) (UniProt P0A7C2); experiment: yeast two-hybrid; list of Smad1 interactors
[2] = target: LexA-Smad1 (full length Smad1 fused in frame to the LexA DNA binding domain (1-202) in pEG202) (UniProt P0A7C2); experiment: yeast two-hybrid screen, LexA-Smad1 bait
HsN3 (human) [3] = target: HsN3 (human) (UniProt P28070); experiment: yeast two-hybrid
antizyme (human) [4] = target: antizyme (human) (UniProt P54368); experiment: yeast two-hybrid
[5] = target: LexA-Smad1 (full length Smad1 fused in frame to the LexA DNA binding domain (1-202) in pEG202) (UniProt P0A7C2); experiment: yeast two-hybrid
HsN3 (human) [6] = target: HsN3 (human) (UniProt P28070); experiment: list of HsN3 interactors; method not detailed
antizyme (human) [7] = target: antizyme (human) (UniProt P54368); experiment: list of antizyme interactors; yeast two-hybrid (FIG. 30)
Smad2 = Smad2 (UniProt Q15796); experiment: yeast two-hybrid; list of Smad2 interactors
Smad4 = Smad4 (UniProt Q13485); experiment: method not detailed; told in the description only
HsN3 (human) [8] = target: HsN3 (human) (UniProt P28070); experiment: method not detailed
antizyme (human) [9] = target: antizyme (human) (UniProt P54368); experiment: method not detailed
Clone S1+12 (human) = target: T1, Clone S1+12 (human); experiment: method not detailed
T1 sequence: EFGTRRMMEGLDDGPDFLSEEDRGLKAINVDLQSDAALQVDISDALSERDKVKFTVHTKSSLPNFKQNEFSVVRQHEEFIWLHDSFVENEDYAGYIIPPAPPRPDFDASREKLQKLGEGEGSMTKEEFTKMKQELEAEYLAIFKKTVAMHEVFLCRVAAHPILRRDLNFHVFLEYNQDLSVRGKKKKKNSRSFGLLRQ

Protein sequences, listed by entry. Tags and fused reporters are not part of them. Lines headed by an entry give the natural chain unless they say otherwise; changes in a name come on top. Residues count along the entry.
UniProt P0A7C2: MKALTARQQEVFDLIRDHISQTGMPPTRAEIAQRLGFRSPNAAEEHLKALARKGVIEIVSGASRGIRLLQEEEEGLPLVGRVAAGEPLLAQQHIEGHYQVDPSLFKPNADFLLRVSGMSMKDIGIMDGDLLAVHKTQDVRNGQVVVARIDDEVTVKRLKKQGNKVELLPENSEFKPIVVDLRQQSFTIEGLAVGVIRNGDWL
UniProt P28070: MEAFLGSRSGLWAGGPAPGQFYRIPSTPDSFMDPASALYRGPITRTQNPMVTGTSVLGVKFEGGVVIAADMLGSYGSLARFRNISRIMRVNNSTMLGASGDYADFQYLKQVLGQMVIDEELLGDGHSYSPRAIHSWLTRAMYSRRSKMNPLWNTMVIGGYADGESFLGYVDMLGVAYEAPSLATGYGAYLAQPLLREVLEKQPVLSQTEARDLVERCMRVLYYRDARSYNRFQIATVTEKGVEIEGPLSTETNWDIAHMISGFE
UniProt P54368, residues 101-228: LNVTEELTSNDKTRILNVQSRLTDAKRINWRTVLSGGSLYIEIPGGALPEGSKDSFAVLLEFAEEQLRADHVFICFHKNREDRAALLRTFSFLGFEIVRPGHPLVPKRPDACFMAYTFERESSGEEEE
UniProt Q15796: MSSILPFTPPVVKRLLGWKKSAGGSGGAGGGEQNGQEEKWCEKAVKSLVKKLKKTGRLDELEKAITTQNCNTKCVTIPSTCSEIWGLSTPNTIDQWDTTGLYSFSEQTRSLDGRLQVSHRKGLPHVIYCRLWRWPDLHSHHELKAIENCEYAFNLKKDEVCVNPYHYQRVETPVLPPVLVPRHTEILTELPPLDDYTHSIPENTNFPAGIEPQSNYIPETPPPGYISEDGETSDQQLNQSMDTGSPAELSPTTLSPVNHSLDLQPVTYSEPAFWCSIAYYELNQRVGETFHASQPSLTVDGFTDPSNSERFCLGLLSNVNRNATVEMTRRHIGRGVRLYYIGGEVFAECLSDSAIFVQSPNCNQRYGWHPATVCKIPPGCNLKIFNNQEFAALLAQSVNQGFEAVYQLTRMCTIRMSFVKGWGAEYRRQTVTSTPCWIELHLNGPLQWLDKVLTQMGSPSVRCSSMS
UniProt Q13485: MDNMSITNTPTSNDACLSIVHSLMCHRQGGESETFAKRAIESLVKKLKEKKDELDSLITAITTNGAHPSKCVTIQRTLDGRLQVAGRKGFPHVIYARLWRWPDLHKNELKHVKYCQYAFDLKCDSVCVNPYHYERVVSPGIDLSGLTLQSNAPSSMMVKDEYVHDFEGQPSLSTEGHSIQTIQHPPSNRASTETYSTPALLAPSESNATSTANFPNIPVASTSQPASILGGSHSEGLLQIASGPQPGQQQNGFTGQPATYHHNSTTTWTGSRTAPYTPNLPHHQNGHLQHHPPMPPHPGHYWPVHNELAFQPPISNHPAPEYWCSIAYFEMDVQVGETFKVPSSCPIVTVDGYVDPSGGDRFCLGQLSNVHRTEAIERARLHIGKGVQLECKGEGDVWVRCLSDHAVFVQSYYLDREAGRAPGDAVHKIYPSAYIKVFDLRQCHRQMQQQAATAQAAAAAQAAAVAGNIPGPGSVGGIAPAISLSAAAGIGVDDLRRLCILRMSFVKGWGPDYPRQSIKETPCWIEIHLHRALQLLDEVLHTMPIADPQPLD
UniProt P84022: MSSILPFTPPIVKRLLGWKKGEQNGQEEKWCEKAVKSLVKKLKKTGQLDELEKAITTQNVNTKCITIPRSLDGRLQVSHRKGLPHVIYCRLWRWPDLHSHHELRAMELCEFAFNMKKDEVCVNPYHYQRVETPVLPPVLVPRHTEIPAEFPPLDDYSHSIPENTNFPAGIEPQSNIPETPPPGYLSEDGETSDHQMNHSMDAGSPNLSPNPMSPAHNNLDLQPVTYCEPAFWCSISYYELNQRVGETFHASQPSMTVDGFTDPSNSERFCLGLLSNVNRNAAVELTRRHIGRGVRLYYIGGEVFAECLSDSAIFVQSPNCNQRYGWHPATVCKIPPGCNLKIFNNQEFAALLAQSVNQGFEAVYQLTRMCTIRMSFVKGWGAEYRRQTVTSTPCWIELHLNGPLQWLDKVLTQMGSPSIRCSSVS
Smad3N (aa 1-144): residues 1-144 of P84022
Smad3C (aa 231-424): residues 231-424 of P84022

Smad3 [10] = target: Smad3 (UniProt P84022); experiment: yeast two-hybrid; list of Smad3 interactors
Smad3N (aa 1-144) = Smad3N (aa 1-144) (UniProt P84022); experiment: co-immunoprecipitation, transfected cells
Smad3C (aa 231-424) = Smad3C (aa 231-424) (UniProt P84022); experiment: co-immunoprecipitation, transfected cells
Smad3 [11] = target: Smad3 (UniProt P84022); experiment: co-immunoprecipitation, transfected cells
Smad3 [12] = target: Smad3 (UniProt P84022); experiment: co-immunoprecipitation, transfected 293 cells

Measured: binding

B1: SNIP-1 (Smad1 Nuclear Interactor Protein 1), clone S1+19 (protein)
chain: PGSGQGQGRDRDTQNLQAQEEEREFYNARRREHRQRNDVGGGGSESQELVPRPGGNNKEKEVPAKEKPSFELSGALLEDTNTFRGVVIKYSEPPEARIPKKRWRLYPFKNDEVLPVMYIHRQSAYLLGRHRRIADIPIDHPSCSKQHAVFQYRLVEYTRADGTVGRRVKPYIIDLGSGNGTFLNNKRIEPQRYYELKEKDVLKFGFSSREYVLLHESSDTSEIDRKDDEDEEEEEEVSDS
not listed: Smad3N (aa 1-144) | Smad3C (aa 231-424) | Smad3 [11] | Smad3 [12]
binds: all other assays above

B2: p115HEF1 (full length HEF1, 115 kD form) (protein, human, UniProt Q14511 1-834, looked up)
chain: MKYKNLMARALYDNVPECAEELAFRKGDILTVIEQNTGGLEGWWLCSLHGRQGIVPGNRVKLLIGPMQETASSHEQPASGLMQQTFGQQKLYQVPNPQAAPRDTIYQVPPSYQNQGIYQVPTGHGTQEQEVYQVPPSVQRSIGGTSGPHVGKKVITPVRTGHGYVYEYPSRYQKDVYDIPPSHTTQGVYDIPPSSAKGPVFSVPVGEIKPQGVYDIPPTKGVYAIPPSACRDEAGLREKDYDFPPPMRQAGRPDLRPEGVYDIPPTCTKPAGKDLHVKYNCDIPGAAEPVARRHQSLSPNHPPPQLGQSVGSQNDAYDVPRGVQFLEPPAETSEKANPQERDGVYDVPLHNPPDAKGSRDLVDGINRLSFSSTGSTRSNMSTSSTSSKESSLSASPAQDKRLFLDPDTAIERLQRLQQALEMGVSSLMALVTTDWRCYGYMERHINEIRTAVDKVELFLKEYLHFVKGAVANAACLPELILHNKMKRELQRVEDSHQILSQTSHDLNECSWSLNILAINKPQNKCDDLDRFVMVAKTVPDDAKQLTTTINTNAEALFRPGPGSLHLKNGPESIMNSTEYPHGGSQGQLLHPGDHKAQAHNKALPPGLSKEQAPDCSSSDGSERSWMDDYDYVHLQGKEEFERQQKELLEKENIMKQNKMQLEHHQLSQFQLLEQEITKPVENDISKWKPSQSLPTTNSGVSAQDRQLLCFYYDQCETHFISLLNAIDALFSCVSSAQPPRIFVAHSKFVILSAHKLVFIGDTLTRQVTAQDIRNKVMNSSNQLCEQLKTIVMATKMAALHYPSTTALQEMVHQVTDLSRNAQLFKRSLLEMATF
modifications: form derived from differential phosphorylation; sites not given
binds: Smad3N (aa 1-144) | Smad3C (aa 231-424) | Smad3 [11] | Smad3 [12]

Source: patent publication US6906179
